Laboratory results taken from PMC4728403.
These are yes or no findings as the source states them, for the method shown. Some entries that bind do so weakly or less than the wild type. Tags and fused reporters may be left off the sequences shown.

Molecular target: T1, Escherichia coli phosphatidylglycerol:prolipoprotein diacylglyceryl transferase (Lgt), C-terminal His6-tag (E. coli) (UniProt P60955)
T1 sequence: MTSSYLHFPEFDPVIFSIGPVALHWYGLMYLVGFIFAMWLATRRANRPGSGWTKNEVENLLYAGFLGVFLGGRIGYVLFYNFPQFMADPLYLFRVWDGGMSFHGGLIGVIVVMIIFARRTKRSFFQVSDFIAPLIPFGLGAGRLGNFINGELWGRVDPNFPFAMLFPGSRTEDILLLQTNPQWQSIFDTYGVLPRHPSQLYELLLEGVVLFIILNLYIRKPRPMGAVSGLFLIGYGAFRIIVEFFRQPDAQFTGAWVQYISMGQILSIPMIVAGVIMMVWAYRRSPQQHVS
Assay: pull-down; His6-tagged Lgt held on Cobalt resin, incubated 30 min with excess (~100 uM) lipoGFP; washed three times with 20 mM Tris-HCl pH 8.0, 300 mM NaCl, 10% glycerol, 0.6% OG, 15 mM imidazole; resin on SDS-PAGE, GFP fluorescence; both purified

B1: diacylglyceryl-modified lipoGFP (Lpp24-GFP, product of Lgt) (peptide)
chain: MKATKLVLGAVILGSTLLAGCSSN
modifications: diacylglyceryl on the lipobox cysteine (C21)
B1 was tested, and the binding was “binds”.
